Reference: PubChem BioAssay AID504784 (Drosophila RNAi Screening Center, 2011)
In all, the deposit lists about 17,000 reagents; this is an unselected part of those with a known target gene and a result. 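Each column is one replicate's B-score; the combined score over replicates was not deposited, so single values may mislead.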 Names joined by + are all predicted targets of the reagent. Further read-outs or replicates are left out here.

- Assay: 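Fly genes whose silencing alters how much lipid cells keep in droplets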 (primary screen)
- Cell system: Drosophila Kc167 embryonic cells
- Knock-down reagent: long dsRNA against Drosophila genes, about 250 ng dsRNA per well
- Duration: 4 days
- Treatment: cells fed 400 µM oleic acid bound to BSA
- Measured: 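Microscope images give a droplet-to-nucleus area ratio, taken as log and converted to a screen-wide B-score; higher values mean greater lipid storage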
- Scale: droplet/nuclear area B-score: higher = more stored lipid (overstorage)

tefu (telomere fusion) [SID104195852]
- droplet/nuclear area B-score, replicate 1: -0.217

CG32212 + hpRNA:CR33940 [SID104189410]
- droplet/nuclear area B-score, replicate 1: -0.0812

CG42583 [SID104202294]
- droplet/nuclear area B-score, replicate 1: -0.563

CG32679 [SID104197436]
- droplet/nuclear area B-score, replicate 1: -0.697

flr (flare) [SID104189579]
- droplet/nuclear area B-score, replicate 1: -0.293

Cpr65Az (Cuticular protein 65Az) [SID104189674]
- droplet/nuclear area B-score, replicate 1: -1.12

Cpr65Az (Cuticular protein 65Az) [SID104201633]
- droplet/nuclear area B-score, replicate 1: -0.688

CG44836 [SID104189707]
- droplet/nuclear area B-score, replicate 1: -0.293

CG13775 [SID104182071]
- droplet/nuclear area B-score, replicate 1: -0.116

GluRIIE (Glutamate receptor IIE) [SID104193223]
- droplet/nuclear area B-score, replicate 1: -1.93

CycA (Cyclin A) [SID104188924]
- droplet/nuclear area B-score, replicate 1: 0.276

CycA (Cyclin A) [SID104190915]
- droplet/nuclear area B-score, replicate 1: 5.73

sala (spalt-adjacent) [SID104183397]
- droplet/nuclear area B-score, replicate 1: -1.88

CG14259 [SID104194546]
- droplet/nuclear area B-score, replicate 1: -2.49

CG11975 [SID104194244]
- droplet/nuclear area B-score, replicate 1: -0.544

nur (nemuri) [SID104181134]
- droplet/nuclear area B-score, replicate 1: 1.03

mnd (minidiscs) [SID104191162]
- droplet/nuclear area B-score, replicate 1: 0.124

CG9426 [SID104183011]
- droplet/nuclear area B-score, replicate 1: 1.95

Fnta (Farnesyl transferase alpha subunit) [SID104180349]
- droplet/nuclear area B-score, replicate 1: -0.0329

Rpn3 (Regulatory particle non-ATPase 3) [SID104183110]
- droplet/nuclear area B-score, replicate 1: -0.0444

dtn (detonator) [SID104197731]
- droplet/nuclear area B-score, replicate 1: -1.98

Pstk + Tim9b [SID104199296]
- droplet/nuclear area B-score, replicate 1: 1.53

Pstk + Tim9b [SID104200084]
- droplet/nuclear area B-score, replicate 1: 0.717

Cdk4 (Cyclin-dependent kinase 4) [SID104187150]
- droplet/nuclear area B-score, replicate 1: -1.03

cysu (Curly Su) [SID104195694]
- droplet/nuclear area B-score, replicate 1: 0.589

Cpr72Ec (Cuticular protein 72Ec) [SID104190241]
- droplet/nuclear area B-score, replicate 1: 1.37

sesB (stress-sensitive B) [SID104200163]
- droplet/nuclear area B-score, replicate 1: 3.47

Reprinted from the entries so far, 4 entries:
CG14259 [SID104194546]
- droplet/nuclear area B-score, replicate 1: -2.49

CG11975 [SID104194244]
- droplet/nuclear area B-score, replicate 1: -0.544

nur (nemuri) [SID104181134]
- droplet/nuclear area B-score, replicate 1: 1.03

mnd (minidiscs) [SID104191162]
- droplet/nuclear area B-score, replicate 1: 0.124
